Drawing on PMC6705763, this text covers binding for 9 molecules.

Experiment [1] has as its target T1, GFP-OsEXPB4 (pCXSN-nGFP) (rice (Oryza sativa L.)) (UniProt Q94LR4).
T1 sequence: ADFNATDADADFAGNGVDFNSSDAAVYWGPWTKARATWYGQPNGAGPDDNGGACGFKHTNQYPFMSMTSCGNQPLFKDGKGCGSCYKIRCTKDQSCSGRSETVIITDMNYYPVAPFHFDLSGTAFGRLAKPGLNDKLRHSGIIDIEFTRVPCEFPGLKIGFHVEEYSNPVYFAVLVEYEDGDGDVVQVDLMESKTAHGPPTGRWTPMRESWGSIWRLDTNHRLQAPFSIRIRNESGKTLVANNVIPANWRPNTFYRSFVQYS
Nature of the experiment: co-IP; rice protoplasts cotransformed with pCAMBIA2300-OsMADS16-Flag and pCXSN-nGFP-candidate; lysate bound to GFP-Nanoab-Agarose 2 h at 4°C, washed four times; western blot with anti-Flag or anti-GFP. (In general: Immunoblotting shows a protein as a band on a membrane.)

Experiment [2] deals with T2, GFP-OsMADS2 (pCXSN-nGFP) (rice (Oryza sativa L.)) (UniProt Q40702).
T2 sequence: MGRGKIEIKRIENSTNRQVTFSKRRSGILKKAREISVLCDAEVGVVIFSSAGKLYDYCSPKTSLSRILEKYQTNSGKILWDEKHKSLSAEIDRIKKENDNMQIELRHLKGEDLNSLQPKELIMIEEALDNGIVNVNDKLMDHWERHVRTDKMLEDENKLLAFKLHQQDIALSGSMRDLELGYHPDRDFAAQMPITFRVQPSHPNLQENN
The description is as above.

In experiment [3] the target is T3, GFP-OsMADS4 (pCXSN-nGFP) (rice (Oryza sativa L.)) (UniProt Q40703).
T3 sequence: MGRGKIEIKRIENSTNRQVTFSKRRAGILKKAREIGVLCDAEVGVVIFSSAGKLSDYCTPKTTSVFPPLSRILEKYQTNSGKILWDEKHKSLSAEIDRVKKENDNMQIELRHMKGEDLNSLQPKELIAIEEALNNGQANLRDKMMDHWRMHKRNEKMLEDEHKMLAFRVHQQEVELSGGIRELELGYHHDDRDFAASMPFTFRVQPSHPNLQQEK
The experiment is described as above.

The target in experiment [4] is T4, GFP-OsPP2C09 (pCXSN-nGFP) (rice (Oryza sativa L.)) (UniProt Q5N9N2).
T4 sequence: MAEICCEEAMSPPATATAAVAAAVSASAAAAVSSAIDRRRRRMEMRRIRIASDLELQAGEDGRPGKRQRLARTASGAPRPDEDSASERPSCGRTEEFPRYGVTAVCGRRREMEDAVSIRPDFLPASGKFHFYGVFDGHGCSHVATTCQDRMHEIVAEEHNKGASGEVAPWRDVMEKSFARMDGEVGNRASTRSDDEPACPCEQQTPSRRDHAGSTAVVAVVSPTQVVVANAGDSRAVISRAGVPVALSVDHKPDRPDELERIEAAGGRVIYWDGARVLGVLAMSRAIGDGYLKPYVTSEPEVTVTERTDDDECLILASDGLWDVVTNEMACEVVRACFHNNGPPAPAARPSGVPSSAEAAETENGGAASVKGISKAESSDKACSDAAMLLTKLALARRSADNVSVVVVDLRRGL
The experiment is described as above.

The target of experiment [5] is T5, nYFP-OsMADS16 (pCAMBIA1300S-YN-OsMADS16) (rice (Oryza sativa L.)) (UniProt Q944S9).
T5 sequence: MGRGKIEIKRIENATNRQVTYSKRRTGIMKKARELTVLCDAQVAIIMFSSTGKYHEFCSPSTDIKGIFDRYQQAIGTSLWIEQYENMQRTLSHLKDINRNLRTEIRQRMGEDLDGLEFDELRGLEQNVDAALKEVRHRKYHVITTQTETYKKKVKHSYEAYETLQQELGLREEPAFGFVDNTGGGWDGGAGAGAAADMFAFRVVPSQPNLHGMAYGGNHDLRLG
In words: split reporter; BiFC in rice protoplasts; OsMADS16 in pCAMBIA1300S-YN, candidates in pCAMBIA2300S-YC; PEG-mediated transfection; confocal microscopy; H2B as nuclear marker.

The target of experiment [6] is T6, OsMADS16 (pGBKT7-OsMADS16, GAL4 DNA-binding domain fusion) (rice (Oryza sativa L.)) (UniProt Q944S9).
T6 sequence: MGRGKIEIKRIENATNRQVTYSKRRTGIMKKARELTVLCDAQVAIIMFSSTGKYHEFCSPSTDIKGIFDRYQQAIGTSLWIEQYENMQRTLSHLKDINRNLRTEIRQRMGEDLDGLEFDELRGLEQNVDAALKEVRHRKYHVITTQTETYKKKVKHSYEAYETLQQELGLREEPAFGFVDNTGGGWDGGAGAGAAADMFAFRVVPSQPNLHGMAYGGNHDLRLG
In words: two-hybrid; yeast AH109 cotransformed with pGBKT7-OsMADS16 (bait) and pGADT7 with the full-length CDS of each candidate (prey); selected on SD/-Leu/-Trp/-His and higher stringency SD/-Leu/-Trp/-His/-Ade plates.

Results are given in words; binding and its absence hold for the method and conditions named. For part of these data: Binding seen in cells or lysates may run through a third protein. Some binding calls cover weakened binding; strength is not graded here. Tags and fused reporters may be left off the sequences shown.

B1: OsMADS16-Flag (pCAMBIA2300-OsMADS16-Flag) (protein, UniProt Q944S9 1-224)
chain: MGRGKIEIKRIENATNRQVTYSKRRTGIMKKARELTVLCDAQVAIIMFSSTGKYHEFCSPSTDIKGIFDRYQQAIGTSLWIEQYENMQRTLSHLKDINRNLRTEIRQRMGEDLDGLEFDELRGLEQNVDAALKEVRHRKYHVITTQTETYKKKVKHSYEAYETLQQELGLREEPAFGFVDNTGGGWDGGAGAGAAADMFAFRVVPSQPNLHGMAYGGNHDLRLG
With B1, the binding result in experiment [1], in experiment [2], in experiment [3] and in experiment [4] was “binds” each time.

B2: cYFP-OsEXPB4 (pCAMBIA2300S-YC) (protein, UniProt Q94LR4 25-286)
chain: ADFNATDADADFAGNGVDFNSSDAAVYWGPWTKARATWYGQPNGAGPDDNGGACGFKHTNQYPFMSMTSCGNQPLFKDGKGCGSCYKIRCTKDQSCSGRSETVIITDMNYYPVAPFHFDLSGTAFGRLAKPGLNDKLRHSGIIDIEFTRVPCEFPGLKIGFHVEEYSNPVYFAVLVEYEDGDGDVVQVDLMESKTAHGPPTGRWTPMRESWGSIWRLDTNHRLQAPFSIRIRNESGKTLVANNVIPANWRPNTFYRSFVQYS
Turning to B2, in experiment [5], the binding result is reported as “binds”.

B3: OsMADS2 (pGADT7 prey) (protein, UniProt Q40702 1-209)
chain: MGRGKIEIKRIENSTNRQVTFSKRRSGILKKAREISVLCDAEVGVVIFSSAGKLYDYCSPKTSLSRILEKYQTNSGKILWDEKHKSLSAEIDRIKKENDNMQIELRHLKGEDLNSLQPKELIMIEEALDNGIVNVNDKLMDHWERHVRTDKMLEDENKLLAFKLHQQDIALSGSMRDLELGYHPDRDFAAQMPITFRVQPSHPNLQENN
On to B3, for which the binding result in experiment [6] is given as “binds”.

B4: cYFP-OsMADS2 (pCAMBIA2300S-YC) (protein, UniProt Q40702 1-209)
chain: MGRGKIEIKRIENSTNRQVTFSKRRSGILKKAREISVLCDAEVGVVIFSSAGKLYDYCSPKTSLSRILEKYQTNSGKILWDEKHKSLSAEIDRIKKENDNMQIELRHLKGEDLNSLQPKELIMIEEALDNGIVNVNDKLMDHWERHVRTDKMLEDENKLLAFKLHQQDIALSGSMRDLELGYHPDRDFAAQMPITFRVQPSHPNLQENN
Consider B4, for which the binding result in experiment [5] is recorded as “binds”.

B5: OsEXPB4 (pGADT7 prey) (protein, UniProt Q94LR4 1-286)
chain: MGSLSSLAAAAVFLSLLAVGHCAAADFNATDADADFAGNGVDFNSSDAAVYWGPWTKARATWYGQPNGAGPDDNGGACGFKHTNQYPFMSMTSCGNQPLFKDGKGCGSCYKIRCTKDQSCSGRSETVIITDMNYYPVAPFHFDLSGTAFGRLAKPGLNDKLRHSGIIDIEFTRVPCEFPGLKIGFHVEEYSNPVYFAVLVEYEDGDGDVVQVDLMESKTAHGPPTGRWTPMRESWGSIWRLDTNHRLQAPFSIRIRNESGKTLVANNVIPANWRPNTFYRSFVQYS
For B5, in experiment [6], the binding entry is recorded as “binds”.

B6: cYFP-OsPP2C09 (pCAMBIA2300S-YC) (protein, UniProt Q5N9N2 1-414)
chain: MAEICCEEAMSPPATATAAVAAAVSASAAAAVSSAIDRRRRRMEMRRIRIASDLELQAGEDGRPGKRQRLARTASGAPRPDEDSASERPSCGRTEEFPRYGVTAVCGRRREMEDAVSIRPDFLPASGKFHFYGVFDGHGCSHVATTCQDRMHEIVAEEHNKGASGEVAPWRDVMEKSFARMDGEVGNRASTRSDDEPACPCEQQTPSRRDHAGSTAVVAVVSPTQVVVANAGDSRAVISRAGVPVALSVDHKPDRPDELERIEAAGGRVIYWDGARVLGVLAMSRAIGDGYLKPYVTSEPEVTVTERTDDDECLILASDGLWDVVTNEMACEVVRACFHNNGPPAPAARPSGVPSSAEAAETENGGAASVKGISKAESSDKACSDAAMLLTKLALARRSADNVSVVVVDLRRGL
In the case of B6, in experiment [5], the binding entry is on record as “binds”.

B7: OsPP2C09 (pGADT7 prey) (protein, UniProt Q5N9N2 1-414)
chain: MAEICCEEAMSPPATATAAVAAAVSASAAAAVSSAIDRRRRRMEMRRIRIASDLELQAGEDGRPGKRQRLARTASGAPRPDEDSASERPSCGRTEEFPRYGVTAVCGRRREMEDAVSIRPDFLPASGKFHFYGVFDGHGCSHVATTCQDRMHEIVAEEHNKGASGEVAPWRDVMEKSFARMDGEVGNRASTRSDDEPACPCEQQTPSRRDHAGSTAVVAVVSPTQVVVANAGDSRAVISRAGVPVALSVDHKPDRPDELERIEAAGGRVIYWDGARVLGVLAMSRAIGDGYLKPYVTSEPEVTVTERTDDDECLILASDGLWDVVTNEMACEVVRACFHNNGPPAPAARPSGVPSSAEAAETENGGAASVKGISKAESSDKACSDAAMLLTKLALARRSADNVSVVVVDLRRGL
In the case of B7, the binding result in experiment [6] is “binds”.

B8: cYFP-OsMADS4 (pCAMBIA2300S-YC) (protein, UniProt Q40703 1-215)
chain: MGRGKIEIKRIENSTNRQVTFSKRRAGILKKAREIGVLCDAEVGVVIFSSAGKLSDYCTPKTTSVFPPLSRILEKYQTNSGKILWDEKHKSLSAEIDRVKKENDNMQIELRHMKGEDLNSLQPKELIAIEEALNNGQANLRDKMMDHWRMHKRNEKMLEDEHKMLAFRVHQQEVELSGGIRELELGYHHDDRDFAASMPFTFRVQPSHPNLQQEK
As to B8, the binding entry in experiment [5] is on record as “binds”.

B9: OsMADS4 (pGADT7 prey) (protein, UniProt Q40703 1-215)
chain: MGRGKIEIKRIENSTNRQVTFSKRRAGILKKAREIGVLCDAEVGVVIFSSAGKLSDYCTPKTTSVFPPLSRILEKYQTNSGKILWDEKHKSLSAEIDRVKKENDNMQIELRHMKGEDLNSLQPKELIAIEEALNNGQANLRDKMMDHWRMHKRNEKMLEDEHKMLAFRVHQQEVELSGGIRELELGYHHDDRDFAASMPFTFRVQPSHPNLQQEK
Turning to B9, the binding entry in experiment [6] is reported as “binds”.
